Experimental data as given in PubChem BioAssay AID504842 (National Center for Advancing Translational Sciences (NCATS), 2011).
The campaign covered roughly 330,000 compounds. About 100 (0.03%) were called active. The inconclusive results got no clear call from the source; some entries with a clear call stand among them for comparison. The call rests on the fitted dose curve; in most records, active means well fitted inhibition curve with a large enough effect; inconclusive means small, poorly fitted or top-dose-only effect; inactive means flat fitted curve, though single readings scatter. Potencies beside an inconclusive call are fits to weak or partial responses and may not hold up.

Test system: Chaperonin Mm-Cpn (Methanococcus maripaludis)
Assay: Inhibitors of TCP-1 ring complex (TRiC) of Methanococcus maripaludis (MmCpn): qHTS; further: nearly all actives have a fitted effect of over 80% in size;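 on Potency: enzyme at 25 nM with ATP substrate at 10 µM during the reaction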
Details: purified Mm-Cpn ATPase, ADP Transcreener TR-FRET
In short: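 Reaction buffer contained 30 mM Tris pH 7.4, 100 mM KCl, 5 mM MgCl2 and 1 mM DTT. Mm-CPN (25 nM final) hydrolysed 10 uM ATP over 30 min at 37°C; ADP was read by HTRF.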
Potency means the concentration at half of the fitted maximal effect.

SMILES | Potency
N/C(Cc1ccc([N+](=O)[O-])cc1)=N\OC(=O)c1ccc([N+](=O)[O-])cc1 | inactive
COc1ccc(NS(=O)(=O)c2ccc(NC(=S)NCC3CCCO3)cc2)cc1 (stereo not drawn) | inconclusive: 100 µM [inhibitor, partial curve, poor fit]
COC(=O)CSc1nc(-c2ccc(C)cc2)c2c(c1C#N)CCCC2 | inconclusive: 79.4 µM [inhibitor, single point]
CC(Oc1cc2oc(=O)c3c(c2cc1Cl)CCC3)C(=O)NCC1CCC(C(=O)O)CC1 (stereo not drawn) | inconclusive: 15.8 µM [inhibitor, single point]
COc1cc(OC)c(OC)cc1CNCCNC(=O)c1ccco1 | inactive
N=C1/C(=C\c2ccc(-c3cccc(Cl)c3)o2)C(=O)N=C2SC=C(c3ccccc3)N12 | inactive
O=C(NC(NNc1ccc([N+](=O)[O-])cc1)(C(F)(F)F)C(F)(F)F)c1ccc(F)cc1 | inactive
O=c1c2ccccc2cnn1Cc1n[nH]c(=S)n1-c1cc(Cl)cc(Cl)c1 | inactive
Cc1ccccc1NC(=S)NNc1ncc(C(F)(F)F)cc1Cl | active: 50.1 µM
COc1cc(C(c2c(C)[nH][nH]c2=O)c2c(C)[nH][nH]c2=O)cc(Br)c1OC | inactive
COc1ccccc1-c1ccc2nnc(SC)n2n1 | inconclusive: 631 µM [inhibitor, partial curve, poor fit]
O=C(Nc1ccc(OCc2ccccc2)cc1)c1ccccc1 | inactive
O=C(Nc1ccc(S(=O)(=O)N2CCN(Cc3ccccc3)CC2)cc1)c1cnccn1 | inconclusive: 316 µM [inhibitor, partial curve, poor fit]
c1ccc(COc2ccc(-c3sc(Nc4ccccc4)n[n+]3-c3ccccc3)cc2)cc1 | inconclusive: 79.4 µM [inhibitor, single point]
CCSc1nc2ccccc2n1C(=O)/C=C/c1ccc(OC)c(OC)c1 | inconclusive: 100 µM [inhibitor, single point]
Cc1cc(Br)c(NC(=O)c2c(-c3c(Cl)cccc3Cl)noc2C)c(Br)c1 | inconclusive: 8.91 µM [inhibitor, single point]
COc1ccc(C(=O)Nc2nnc(-c3ccco3)s2)cc1 | inconclusive: 89.1 µM [inhibitor, partial curve]
CC(C)[C@H](NC(=O)c1ccco1)C(=O)OCC(=O)c1ccc(Br)s1 | inconclusive: 79.4 µM [inhibitor, partial curve, poor fit]
Cc1cccc(-n2c(O)c(C=Nc3cc(O)ccc3C)c3ccccc3c2=O)n1 | inconclusive: 10 µM [inhibitor, single point]
N#CCC(=O)Nc1ccc(C(=O)OCC(=O)c2ccc3c(c2)OCCO3)cc1 | inconclusive: 112 µM [inhibitor, partial curve, poor fit]
CN(CCCS(=O)(=O)[O-])c1ccc(/C=C/c2ccc3ccccc3[n+]2C)cc1 | inactive
Cc1cc(C)nc(NS(=O)(=O)c2ccc(NC(=O)CSc3nc(-c4ccccc4)c(C#N)c(=O)[nH]3)cc2)n1 | inconclusive: 316 µM [inhibitor, partial curve, poor fit]
C/C=C/Cn1c(SCc2ccc(C)cc2)nc2c1c(=O)[nH]c(=O)n2C | inactive

SMILES | Potency
Cc1cccc(-n2nc(C(=O)Nc3ccccc3)n3c(=O)cc(-c4ccccc4)nc23)c1 | inconclusive: 89.1 µM [inhibitor, single point]
CC(C)c1ccc(C(=O)Nc2nnc(S(=O)(=O)N3CCCCC3)s2)cc1 | inconclusive: 7.08 µM [inhibitor, single point]
O=[N+]([O-])c1ccc(S(=O)(=O)CC(CN2CCOCC2)N2CCOCC2)cc1 (stereo not drawn) | inactive
CN(Cc1ccccc1)C(=O)c1cn(C)c2ccc(S(=O)(=O)N3CCCC3)cc2c1=O | inactive
CN(C)CCCNC(=O)c1cc(C(=O)c2c(Cl)cccc2Cl)c[nH]1 | inconclusive: 100 µM [inhibitor, partial curve, poor fit]
COc1cccc(NC(=O)CN(C)C(=O)c2cn(-c3ccccc3)nc2-c2cccs2)c1 | inconclusive: 89.1 µM [inhibitor, single point]
COc1ccc(N2C(=O)CN=C2Nc2nc(C)cc(C)n2)cc1 | inconclusive: 1780 µM [inhibitor, partial curve, poor fit]
CCCCCNC(=O)c1cccc(S(=O)(=O)N2CC3(C)CC2CC(C)(C)C3)c1 (stereo not drawn) | inconclusive: 63.1 µM [inhibitor, single point]
CC(=O)C1=C(C)OC(N)=C(C#N)C1c1cc2cccc(C)c2nc1Cl (stereo not drawn) | inactive
COc1ccc(C(=O)N2CCC(n3nccc3NC(=O)C3CC3)CC2)c(OC)c1OC | inconclusive: 28.2 µM [inhibitor, single point]
O=C(COC(=O)Cc1ccc(Cl)cc1)Nc1cc(S(=O)(=O)N2CCOCC2)ccc1N1CCCC1 | inconclusive: 79.4 µM [inhibitor, single point]
O=C(Oc1ccccc1)c1ccc2nsnc2c1 | inconclusive: 100 µM [inhibitor, single point]
O=C(N=Nc1c(O)n(C2OC(=O)c3ccccc32)c2ccccc12)c1ccc(O)cc1 (stereo not drawn) | inconclusive: 15.8 µM [inhibitor, single point]
c1ccc2[nH]c(NCCCN3CCOCC3)nc2c1 | inactive
COc1ccc(NC(=O)CSc2ccc3ccccc3c2)cc1S(=O)(=O)N1CCCCC1 | inconclusive: 100 µM [inhibitor, partial curve, poor fit]
O=C(CSc1nnc(NC(=O)c2ccccc2)s1)NCC1CCCO1 (stereo not drawn) | inactive
CC(=O)NC(Cc1ccccc1)C(=O)OCC(=O)c1ccc(F)cc1 (stereo not drawn) | inconclusive: 15.8 µM [inhibitor, single point]
O=C(CSc1nnc(-c2ccccc2)o1)c1nnc(-c2ccccc2)o1 | inconclusive: 200 µM [inhibitor, partial curve, poor fit]
O=C(c1cc2sccc2n1Cc1ccccc1)N1CCN(c2nc3ccccc3s2)CC1 | inconclusive: 100 µM [inhibitor, single point]
O=C(CN1CCN(C(=O)c2cccc(-n3cnnn3)c2)CC1)Nc1ccccc1Cl | inactive
O=C(Nc1ccccc1C(=O)NCCCN1CCOCC1)c1ccc(Cl)cc1 | inactive
COc1ccc(-n2nc(C(=O)NCC(=O)N3CCN(c4ccccc4)CC3)c3ccccc3c2=O)cc1OC | inactive
COC(=O)c1ccccc1S(=O)(=O)Oc1ccc(-c2ccc(C(=O)O)cc2)cc1 | inactive

A few values from the list.
Potency, O=C(NC(NNc1ccc([N+](=O)[O-])cc1)(C(F)(F)F)C(F)(F)F)c1ccc(F)cc1 is entered as inactive
Potency, CC(C)[C@H](NC(=O)c1ccco1)C(=O)OCC(=O)c1ccc(Br)s1 is entered as inconclusive: 79.4 µM [inhibitor, partial curve, poor fit]
Potency, COc1cc(OC)c(OC)cc1CNCCNC(=O)c1ccco1 is entered as inactive

Going on with the list.

SMILES | Potency
O=C(NCc1ccccc1)C1CCN(S(=O)(=O)c2ccc(N3CCCC3=O)cc2)CC1 | inactive
CCn1c(SC2CCOC2=O)nnc1-c1ccc(Cl)cc1 (stereo not drawn) | inconclusive: 100 µM [inhibitor, partial curve, poor fit]
CC(C)CNC(=O)CC(NCC(C)C)C(=O)O (stereo not drawn) | inconclusive: 100 µM [inhibitor, single point]
Brc1ccc(-c2nnc3sc(CNC4CCCC4)cn23)cc1 | inconclusive: 89.1 µM [inhibitor, partial curve]
O=C(NCC(c1ccco1)N1CCc2ccccc21)C(=O)Nc1ccc(F)cc1F (stereo not drawn) | inactive
Cc1nc2ccccc2n1Cc1n[nH]c(=S)n1-c1ccc(Cl)cc1 | inconclusive: 56.2 µM [inhibitor, single point]
S=c1[nH]nc(-c2ccco2)n1/N=C/C=C/c1ccco1 | inactive
Cc1cc(N2C(=O)C(O)=C(C(=O)c3cccs3)C2c2ccccc2)no1 (stereo not drawn) | inactive
Cc1nnc2c(SC(C)C)nc3ccccc3n12 | inconclusive: 89.1 µM [inhibitor, partial curve, poor fit]
CC(C)OC(=O)C(C#N)c1nc2ccccc2nc1N1CCCC1 (stereo not drawn) | inconclusive: 50.1 µM [inhibitor, single point]
CCN(CC)CCNC(=O)c1cc(-c2ccc(Br)s2)nc2ccccc12 | inconclusive: 141 µM [inhibitor, partial curve, poor fit]
O=Cc1ccc(OCc2cccc(C(F)(F)F)c2)cc1O | inconclusive: 100 µM [inhibitor, single point]
Cc1nc2nc(C)c(CCC(=O)NCCC3=CCCCC3)c(C)n2n1 | inconclusive: 11.2 µM [inhibitor, single point]
N#C/C(=C\c1cccc(Br)c1)C(=O)N1CCCCC1 | inconclusive: 70.8 µM [inhibitor, single point]
O=S(=O)(c1ccccc1)N1CCN=C1SCc1cccc(Cl)c1 | inconclusive: 89.1 µM [inhibitor, single point]
COc1ccc(-c2c(-c3ccc(S(C)(=O)=O)cc3)sc3ccc(OC)cc23)cc1 | inconclusive: 50.1 µM [inhibitor, partial curve, poor fit]
COc1ccccc1C(CNC(=O)CN(C)S(=O)(=O)c1ccc(C)cc1)N1CCCC1 (stereo not drawn) | inconclusive: 200 µM [inhibitor, partial curve, poor fit]
Cc1cc2[nH]c3c(c[n+](C)c4ccccc34)c2cc1C | inactive
CNCCCNCc1ccc(SC)cc1 | inconclusive: 12.6 µM [inhibitor, single point]
NC(=O)C1CCN(c2nc(-c3ccccc3Br)cs2)CC1 | inconclusive: 15.8 µM [inhibitor, single point]
N#CCc1c(C#N)c(N)nc(N2CCN(S(=O)(=O)c3ccccc3)CC2)c1C#N | inconclusive: 79.4 µM [inhibitor, partial curve, poor fit]
O=C(OCc1ccccc1)c1cnc(Cl)c(Cl)c1 | inconclusive: 100 µM [inhibitor, partial curve, poor fit]

For reference, part of the list above.
SMILES | Potency
CN(CCCS(=O)(=O)[O-])c1ccc(/C=C/c2ccc3ccccc3[n+]2C)cc1 | inactive
Cc1cc(C)nc(NS(=O)(=O)c2ccc(NC(=O)CSc3nc(-c4ccccc4)c(C#N)c(=O)[nH]3)cc2)n1 | inconclusive: 316 µM [inhibitor, partial curve, poor fit]
